Test results from publication PMC12517348.
These are yes or no findings as the source states them, for the method shown. In cells and extracts the contact can be indirect. Some results given as binding are weak or reduced against the parent protein; the word gives no strength. Sequences can lack the tags named with a protein.

The chains behind the UniProt entries cited, without tags or fusion partners.
UniProt P10085: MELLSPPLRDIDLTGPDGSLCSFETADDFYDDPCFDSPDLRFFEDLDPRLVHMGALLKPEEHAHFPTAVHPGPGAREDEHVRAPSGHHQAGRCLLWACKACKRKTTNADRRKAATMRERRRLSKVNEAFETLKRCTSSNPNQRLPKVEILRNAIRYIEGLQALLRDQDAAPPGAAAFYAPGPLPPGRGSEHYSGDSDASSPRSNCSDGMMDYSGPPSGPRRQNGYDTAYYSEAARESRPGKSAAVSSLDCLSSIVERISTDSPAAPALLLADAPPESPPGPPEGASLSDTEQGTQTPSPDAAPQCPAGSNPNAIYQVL

Assays:
[1] = molecular target: MYOD1, Myc-tagged (MyoD-myc) (UniProt P10085); assay: co-IP; HEK293T cells overexpressing MyoD-myc, MyoG-myc and Rxrg-flag; 1 mM DSP cross-linking for 30 min before lysis; NP40 lysis buffer (150 mM NaCl, 50 mM Tris pH 7.5, 1% NP40); 1 mg protein precipitated with anti-myc antibody on protein A agarose, 4°C, 16 h; blots with anti-myc and anti-flag-HRP
[2] = molecular target: T1, MYOG, Myc-tagged (MyoG-myc) (mouse) (UniProt P12979); assay: as above
T1 sequence: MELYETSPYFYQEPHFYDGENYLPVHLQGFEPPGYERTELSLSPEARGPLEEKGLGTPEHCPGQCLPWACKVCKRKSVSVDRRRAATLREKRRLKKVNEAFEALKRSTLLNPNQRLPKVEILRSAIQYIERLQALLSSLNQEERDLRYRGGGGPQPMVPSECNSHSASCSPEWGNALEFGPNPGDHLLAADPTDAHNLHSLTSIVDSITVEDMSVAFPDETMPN

binding [1]: binds | binding [2]: binds
B1: RXRG, flag-tagged (Rxrg-flag) (protein, UniProt P28705 1-463)
chain: MYGNYSHFMKFPTGFGGSPGHTGSTSMSPSVALPTGKPMDSHPSYTDTPVSAPRTLSAVGTPLNALGSPYRVITSAMGPPSGALAAPPGINLVAPPSSQLNVVNSVSSSEDIKPLPGLPGIGNMNYPSTSPGSLVKHICAICGDRSSGKHYGVYSCEGCKGFFKRTIRKDLIYTCRDNKDCLIDKRQRNRCQYCRYQKCLVMGMKREAVQEERQRSRERAESEAECASSSHEDMPVERILEAELAVEPKTESYGDMNVENSTNDPVTNICHAADKQLFTLVEWAKRIPHFSDLTLEDQVILLRAGWNELLIASFSHRSVSVQDGILLATGLHVHRSSAHSAGVGSIFDRVLTELVSKMKDMQMDKSELGCLRAIVLFNPDAKGLSNPSEVETLREKVYATLEAYTKQKYPEQPGRFAKLLLRLPALRSIGLKCLEHLFFFKLIGDTPIDSFLMEMLETPLQIT
